In the supplement of paper PMC11732987, “Enantioselective OTUD7B fragment discovery through chemoproteomics screening and high-throughput optimisation” (Communications Chemistry, 2025):
The other results are listed elsewhere or left out. The data scatter; read single values as rough.

Amino acid sequences for entries named in this document (tags omitted). A change or cut given only in a name is not applied to a line headed by its entry.
UniProt O43815: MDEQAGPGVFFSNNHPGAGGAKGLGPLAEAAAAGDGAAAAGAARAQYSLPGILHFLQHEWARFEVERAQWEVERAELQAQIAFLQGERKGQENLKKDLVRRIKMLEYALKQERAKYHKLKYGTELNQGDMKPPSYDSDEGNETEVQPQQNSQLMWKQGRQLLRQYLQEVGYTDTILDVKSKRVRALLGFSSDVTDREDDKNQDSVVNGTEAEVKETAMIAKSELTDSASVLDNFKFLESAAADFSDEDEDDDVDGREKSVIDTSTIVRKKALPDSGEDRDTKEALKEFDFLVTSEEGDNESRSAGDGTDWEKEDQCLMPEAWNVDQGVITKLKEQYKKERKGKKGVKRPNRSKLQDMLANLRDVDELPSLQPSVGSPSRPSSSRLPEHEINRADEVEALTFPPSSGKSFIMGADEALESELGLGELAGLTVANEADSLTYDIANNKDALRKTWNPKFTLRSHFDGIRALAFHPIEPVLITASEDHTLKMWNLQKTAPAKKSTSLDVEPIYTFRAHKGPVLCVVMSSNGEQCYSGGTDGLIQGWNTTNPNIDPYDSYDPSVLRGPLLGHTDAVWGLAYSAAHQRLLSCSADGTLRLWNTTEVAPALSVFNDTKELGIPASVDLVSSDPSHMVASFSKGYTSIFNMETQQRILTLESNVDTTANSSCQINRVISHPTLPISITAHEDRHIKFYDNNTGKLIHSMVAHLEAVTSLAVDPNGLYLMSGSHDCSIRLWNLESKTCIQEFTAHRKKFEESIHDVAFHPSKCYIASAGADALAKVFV

Biological target: T1, STRN C316 (UniProt O43815)
T1 sequence (whole entry): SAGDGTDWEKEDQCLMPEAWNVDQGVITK
Test: log2 mean competition ratio of IA-DTB cysteine labelling (DMSO/compound) (log2 ratio); higher = stronger cysteine engagement by compound
Details: 50 µM; treatment time: 4 h; cell line lysate: HEK293T
Procedure: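 IA-DTB competitive cysteine chemoproteomics in HEK293T RIPA lysate. Lysates were treated with compound 29 or 30 at 50 or 200 µM for 4 h, then IA-DTB (500 µM, 1 h), trypsin-digested, NeutrAvidin-enriched and analysed by diaPASEF. Competition ratio = intensity DMSO / intensity compound (n=4 treated, n=64 DMSO); binding: mean log2 CR ≥ 1 and p ≤ 0.05 plus QC filters. Target is the cysteine site.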

| Structure (SMILES) | log2 mean competition ratio |
| --- | --- |
| O=C(CCl)N[C@@H]1CCCc2ccccc21 | -0.264 |
| O=C(CCl)N[C@H]1CCCc2ccccc21 | 0.352 |

Same assay, conditions: 200 µM; treatment time: 4 h; cell line lysate: HEK293T

| Structure (SMILES) | log2 mean competition ratio |
| --- | --- |
| O=C(CCl)N[C@@H]1CCCc2ccccc21 | -0.24 |
| O=C(CCl)N[C@H]1CCCc2ccccc21 | -0.289 |
